Source: the supplement of paper PMC3334620
The full ranking holds about 33,000 sequences; the median of “E-score (-0.5 to 0.5)” is about -0.016, and the highest 2% start at about 0.3. This is one part of the list.

Biological target: T1, Yer184c (UniProt P39961)
T1 sequence: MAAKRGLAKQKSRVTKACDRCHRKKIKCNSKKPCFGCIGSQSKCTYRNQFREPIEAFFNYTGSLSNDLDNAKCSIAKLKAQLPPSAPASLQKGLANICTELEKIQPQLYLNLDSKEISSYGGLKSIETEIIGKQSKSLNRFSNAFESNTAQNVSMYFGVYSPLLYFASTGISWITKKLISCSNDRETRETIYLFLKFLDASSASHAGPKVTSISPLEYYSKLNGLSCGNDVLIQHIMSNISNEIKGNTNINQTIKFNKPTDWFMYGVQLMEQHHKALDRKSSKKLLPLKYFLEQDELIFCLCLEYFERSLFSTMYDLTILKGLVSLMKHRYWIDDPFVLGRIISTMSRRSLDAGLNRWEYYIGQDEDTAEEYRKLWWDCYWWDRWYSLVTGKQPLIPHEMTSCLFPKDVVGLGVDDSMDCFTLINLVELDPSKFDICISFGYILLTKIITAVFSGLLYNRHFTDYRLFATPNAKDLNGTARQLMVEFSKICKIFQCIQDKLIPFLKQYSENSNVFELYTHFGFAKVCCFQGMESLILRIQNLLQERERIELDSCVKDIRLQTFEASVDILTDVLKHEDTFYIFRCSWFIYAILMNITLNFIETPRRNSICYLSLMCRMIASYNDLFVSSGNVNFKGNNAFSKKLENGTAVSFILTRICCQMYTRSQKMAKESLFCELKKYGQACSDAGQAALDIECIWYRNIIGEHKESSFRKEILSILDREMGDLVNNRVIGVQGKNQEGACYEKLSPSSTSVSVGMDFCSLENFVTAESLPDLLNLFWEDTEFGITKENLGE
Experiment: PBM E-score (8-mer binding enrichment) (E-score (-0.5 to 0.5)); higher = stronger / more preferred TF binding
Details: protein concentration: 100 nM; construct: GST-full length
How it was run: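 GST-tagged yeast TFs (full-length or DNA-binding domain) were made by PURExpress in vitro transcription/translation and applied at about 100-200 nM to universal all-10-mer Agilent arrays. The arrays were made double-stranded by primer extension, on fresh or once-stripped slides. Bound protein was detected with fluorescent anti-GST, and scans were normalised with masliner. Each ungapped eight-base word, pooled with its reverse complement, received an E-score (modified Wilcoxon-Mann-Whitney statistic) from the Universal PBM Analysis Suite.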

Sequence	PBM E-score
ATGCGTCG	-0.0754
AGAATAAA	0.162
ACAGAGTG	-0.0233
GTGCCTAA	-0.0651
AATGATAT	0.127
AGGGACAT	-0.0384
GACGGCTA	0.0159
GCAATAGC	-0.0393
ATCAGTAA	0.166
CGCAATGA	0.00219
CTTCTTCA	-0.0995
GGTCGACC	0.17
CATGCCCG	0.0955
GCAAAATA	0.195
AACTATCT	-0.0408
GCAGACGC	-0.0181
AAGGGGTC	-0.218
GAGGTACA	-0.218
AACTGAAT	-0.141
GCCTCCCC	-0.256
CTCGTCGA	-0.00306
CTATTCGC	-0.0678
GTAATCAA	0.262
AGTCCTGC	-0.0853
CTGAGCAC	-0.117

Sequence	PBM E-score
CCCCCTGC	-0.356
CCGCACAG	-0.0342
ATTCATAA	0.156
CGGCAAGC	0.15
CCCTGGCG	-0.278
CTCGTGCC	-0.189
AGGCAATG	-0.133
CTGCTGGA	-0.144
CCATGACA	-0.18
ATAAACTC	0.189
ACCTATTA	-0.0673
ACAAGCCA	-0.266
CAGTATCG	0.00993
AGAGTACT	-0.151
CGACATTC	-0.112
CAACTTGG	-0.0503
AGGGTGAG	-0.224
AGGGTGAC	-0.108
CTATATCC	-0.119
GACCTTAA	-0.13
ATATCCTC	0.0493
CTCTGGCC	-0.0594
ATGATACG	0.231
GTGACCAA	-0.0261
GACGGGAA	0.0118

Individual results from the entries so far.
Value of GACGGGAA under PBM E-score: 0.0118
Value of CCATGACA under PBM E-score: -0.18
Value of CTCTGGCC under PBM E-score: -0.0594
Value of GACCTTAA under PBM E-score: -0.13
Value of AGGGTGAC under PBM E-score: -0.108

(listing goes on)

Sequence	PBM E-score
GAAGTCCC	-0.269
CATTTCTA	0.175
AGAGTTGA	0.0152
AGATTTCG	0.156
TGTACCAA	-0.0606
ACCGGCCG	0.413
GAACCCAC	0.0662
AATCAATT	0.227
AGGCACTA	-0.0569
AGGATACC	-0.0534
ATACGTCC	-0.0599
AGCTAGCG	-0.205
AGTTTAGA	0.0633
AAACACGT	-0.0975
CCTATAAG	-0.211
AGGTGGAA	0.097
ACAGATCC	0.204
ACAAGTCG	-0.246
ATTGGCTA	-0.0201
GTAACGTA	0.0255
CTTTATCC	0.0754
ACCGAAGA	0.344
CAAGCAAC	-0.00493
CTCGGCAA	0.319
AATTCTAG	0.0208

Sequence	PBM E-score
AGCTACAG	-0.229
AAATCCAT	0.0635
ATGTGAAT	0.0398
AGTTTACA	0.0457
AAAGAAGC	0.0902
CCTCCTTC	-0.0753
CCAAGCGC	0.0605
ACAGCGCA	-0.151
ATACGGAT	0.196
ATCCGGCG	0.321
GACGTGGA	-0.317
AAGTAGCC	-0.0314
GCGAATTA	0.122
AGAGAGAC	-0.155
AACATTTC	0.0819
GAGCTTGC	-0.172
ACAATTGG	-0.167
CCGACTCC	-0.00279
GGTAATCA	0.132
CTTGCGTC	-0.153
TAAAAGGA	0.14
CTACCCCC	-0.29
GAGCCGCA	0.0573
CCGACCGA	0.219
GGACTATA	0.0546

2 entries drawn at random from those above:
Sequence	PBM E-score
AAACACGT	-0.0975
AGAATAAA	0.162

Additional results.

Sequence	PBM E-score
AGGTACCG	0.146
CGAATTGC	0.0361
TCGCGGAA	0.137
GAATCTGC	0.12
GGACTGCC	-0.102
ATTAGCAC	0.121
ATTCTTAA	0.00628
CCGGGAAC	0.303
ATCGGGTC	0.122
CAGCACTC	-0.129
GATTTTGC	-0.0335
GCGACACC	-0.0638
CATCGCCG	0.154
ACCCCTTC	-0.285
CCACCGGC	0.146
CGTCTTTA	0.217
CCCTTGCC	-0.229
TCGTCAGA	-0.209
AGGATAGG	-0.108
GAGTTATA	0.0735
GGCGAGGA	-0.0763
CCCTTTTA	-0.145
CGGACTAG	0.0558
GCCATACC	-0.225
CGTTAGAG	-0.0061

Sequence	PBM E-score
ATGTGGTA	0.0324
GCGAGAGA	-0.117
ACTGATCT	0.0596
GAGGACAC	-0.0629
ACCTCCAC	-0.105
GCGGCAAC	0.117
ACATGCGA	-0.123
GCTATCCA	0.0191
GTGTCCCA	-0.0413
AGGTCGAG	-0.159
CAGCGAAC	0.00469
GGAGGCAA	-0.176
GCGCAATA	-0.0434
ATCAGGGG	-0.367
AGAAGGGC	-0.188
GGCACATA	0.0176
CGTTGCCA	0.0238
GGGCTGAA	0.0258
ATCGATTC	-0.0187
AGAGATAA	-0.0218
CACACACG	0.0314
ATCGGCTG	0.223
AGTTTTTC	0.171
CGTGGACC	-0.177
AACGCAGA	0.0553

Sequence	PBM E-score
GTAAGAAC	0.209
CTCGTAAC	-0.0543
ACAAACCT	-0.103
AATTTCAA	0.0699
CCATCAGG	-0.323
TATCACGA	-0.0636
ATATAAGG	0.215
AACCTTCT	-0.00663
CGGGCACG	0.0243
GTAATATA	0.244
ACTGGGCA	-0.199
ACGTCGCA	-0.185
GTATGCTA	-0.0379
CCGCTAGG	-0.0666
CACCACAA	0.0264
CCGCCGCA	0.0998
CTCTCATC	-0.172
CCCGGATA	0.286
CGTCCACA	-0.095
CGGATCAA	0.318
CGGACACC	0.127
AGCGGAGC	-0.0345
